The source holds more than one record for some entries. This list holds those alone. There may be further records. The records of an entry read as repeated measurements on other runs, samples or individuals; a mean can stand among them.
Molecular target: PARP1 (Homo sapiens, UniProt P09874)
Assay: Release of fluorescently labeled p18mer DNA (fluorescence polarization) upon NAD+ addition, KI determination for PARPi, with or without HPF1;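 further: PARP1 bound to fluorescein-tagged DNA and preincubated with inhibitor, then high NAD+ added, drop in fluorescence polarization tracked as the DNA dissociates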
Type: biochemical
Conditions: PARP1, without HPF1, single experiment

The chains behind the UniProt entries cited, without tags or fusion partners.
UniProt P09874, whole entry: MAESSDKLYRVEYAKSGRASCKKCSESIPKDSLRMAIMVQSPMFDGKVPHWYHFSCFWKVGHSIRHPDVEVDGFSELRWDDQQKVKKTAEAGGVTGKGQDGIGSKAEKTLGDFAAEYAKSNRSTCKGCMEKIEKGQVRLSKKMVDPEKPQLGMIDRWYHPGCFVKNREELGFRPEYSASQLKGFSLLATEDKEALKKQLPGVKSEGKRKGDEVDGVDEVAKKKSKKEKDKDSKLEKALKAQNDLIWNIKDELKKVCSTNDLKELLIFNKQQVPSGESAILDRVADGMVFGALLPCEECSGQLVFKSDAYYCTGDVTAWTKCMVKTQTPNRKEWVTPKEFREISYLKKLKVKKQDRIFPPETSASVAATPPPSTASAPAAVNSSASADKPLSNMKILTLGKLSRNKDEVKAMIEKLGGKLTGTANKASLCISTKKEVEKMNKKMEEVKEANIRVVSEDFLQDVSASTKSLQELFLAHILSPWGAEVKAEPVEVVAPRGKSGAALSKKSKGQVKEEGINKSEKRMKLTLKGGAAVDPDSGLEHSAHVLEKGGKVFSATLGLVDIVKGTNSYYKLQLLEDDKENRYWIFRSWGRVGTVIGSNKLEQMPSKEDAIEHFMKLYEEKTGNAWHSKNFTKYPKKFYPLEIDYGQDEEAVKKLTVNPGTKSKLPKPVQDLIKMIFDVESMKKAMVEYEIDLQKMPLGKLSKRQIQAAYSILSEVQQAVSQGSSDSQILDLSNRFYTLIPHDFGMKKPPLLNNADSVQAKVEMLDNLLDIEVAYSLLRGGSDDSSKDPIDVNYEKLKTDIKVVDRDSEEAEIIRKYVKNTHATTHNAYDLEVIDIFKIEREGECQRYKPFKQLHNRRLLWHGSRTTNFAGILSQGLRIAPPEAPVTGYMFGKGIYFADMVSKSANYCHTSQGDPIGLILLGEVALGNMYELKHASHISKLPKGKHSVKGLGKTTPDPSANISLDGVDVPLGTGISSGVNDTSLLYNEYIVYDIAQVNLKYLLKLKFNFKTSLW

SMILES: COC1CCN(C(=O)c2cc(Cc3n[nH]c(=O)c4ccccc34)ccc2F)CC1
- koff (est): ≥ 0.00347 s-1, ≥ 0.00165 s-1, ≥ 0.00248 s-1, ≥ 0.00267 s-1, ≥ 0.00578 s-1
- t1/2est: 200, 420, 280, 260, 120 s

From publication PMC7854685, “Histone Parylation factor 1 contributes to the inhibition of PARP1 by cancer drugs” (Nature Communications, 2021)
